These are literature values, as cited in patent US12582654B2, “Cyano-substituted pyridine and cyano-substituted pyrimidine compound and preparation method therefor and application thereof” (BEIJING SCITECH-MQ PHARMACEUTICALS LIMITED, priority 2019, dated 2026).

This data set concerns each subtype of FGFR. To be noted: cited from earlier work.

Consider `C=CC(=O)N1CC[C@H](n2nc(C#Cc3cc(OC)cc(OC)c3)c3c(N)ncnc32)C1` [TAS-120], for which the “enzymatic inhibitory activity against each subtype of FGFR” value is “nanomolar levels”.
